# For some assays here: For expression read-outs the peptide stands for its source gene, whose mRNA was measured; the gene is not named for every peptide.
# What was measured:
# [1] = Identification and label-free relative LC-MS quantitation of HLA-presented peptides on tumor and normal tissue samples (XPRESIDENT presentation profiles); parameters: species or system human; conditions: for Additional entities of particular interest (presentation of selected peptides across entities): tumor entities on which the HLA-presented peptide was found, entity abbreviations defined in the title of Table 4B; for Entities of particular interest: entities where the peptide was over-presented on cancer samples compared to normal tissues
# [2] = system: source genes of the peptides (mRNA) in tumor and normal tissue; test: Expression profiling of source genes by Affymetrix microarrays (target coverage); parameters: species or system human; conditions: over-expression = more than 1.5-fold higher expression on tumor vs. normal tissue with highest expression, gene with minimal coverage decisive; for Target coverage for source genes of selected peptides, BPHI/PCA (%): BPHI/PCA (prostate cancer) samples; for Target coverage for source genes of selected peptides, CRC (%): CRC tumor samples; for Target coverage for source genes of selected peptides, GB (%): GB tumor samples; for Target coverage for source genes of selected peptides, GC (%): GC tumor samples; for Target coverage for source genes of selected peptides, HCC (%): HCC tumor samples; for Target coverage for source genes of selected peptides, NSCLC (%): NSCLC tumor samples; for Target coverage for source genes of selected peptides, PC (%): PC tumor samples; for Target coverage for source genes of selected peptides, RCC (%): RCC tumor samples
Substance,Additional entities of particular interest (presentation of selected peptides across entities) [1],"Target coverage for source genes of selected peptides, BPHI/PCA (%) [2]","Target coverage for source genes of selected peptides, CRC (%) [2]","Target coverage for source genes of selected peptides, GB (%) [2]","Target coverage for source genes of selected peptides, GC (%) [2]","Target coverage for source genes of selected peptides, HCC (%) [2]","Target coverage for source genes of selected peptides, NSCLC (%) [2]","Target coverage for source genes of selected peptides, PC (%) [2]","Target coverage for source genes of selected peptides, RCC (%) [2]",Entities of particular interest [1]
33: peptide found in MUC16 (gene looked up) (TLDRNSLYV; listed as Homo sapiens) [compound 33],"OC, UTC",II (20-49% = II),I (<19% over-expression = I),I (<19% over-expression = I),I (<19% over-expression = I),I (<19% over-expression = I),III (50-69% = III),II (20-49% = II),I (<19% over-expression = I),
35: peptide found in KIF11 (gene looked up) (VIIKGLEEI; listed as Homo sapiens) [compound 35],,I (<19% over-expression = I),II (20-49% = II),I (<19% over-expression = I),I (<19% over-expression = I),I (<19% over-expression = I),I (<19% over-expression = I),I (<19% over-expression = I),I (<19% over-expression = I),"GC, NSCLC, OSCAR"
36: peptide found in KIF11 (gene looked up) (TVLQELINV; listed as Homo sapiens) [compound 36],"UBC, UTC, MEL, CRC, AML, NHL",I (<19% over-expression = I),II (20-49% = II),I (<19% over-expression = I),I (<19% over-expression = I),I (<19% over-expression = I),I (<19% over-expression = I),I (<19% over-expression = I),I (<19% over-expression = I),"NSCLC, PC, OSCAR"
37: peptide found in KIF11 (gene looked up) (QIVELIEKI; listed as Homo sapiens) [compound 37],,I (<19% over-expression = I),II (20-49% = II),I (<19% over-expression = I),I (<19% over-expression = I),I (<19% over-expression = I),I (<19% over-expression = I),I (<19% over-expression = I),I (<19% over-expression = I),"GC, NSCLC, OSCAR"
48: peptide found in CHEK1 (gene looked up) (KISDFGLATV; listed as Homo sapiens) [compound 48],"OC, MEL",I (<19% over-expression = I),IV (>70% = IV),IV (>70% = IV),IV (>70% = IV),II (20-49% = II),IV (>70% = IV),II (20-49% = II),II (20-49% = II),"GB, NSCLC, PC, OSCAR"
52: peptide found in BRIP1 (gene looked up) (TIGIPFPNV; listed as Homo sapiens) [compound 52],"MEL, NHL",I (<19% over-expression = I),I (<19% over-expression = I),III (50-69% = III),II (20-49% = II),II (20-49% = II),II (20-49% = II),I (<19% over-expression = I),I (<19% over-expression = I),"NSCLC, PC, OC"
58: peptide found in BUB1 (gene looked up) (HLLGEGAFAQV; listed as Homo sapiens) [compound 58],,I (<19% over-expression = I),III (50-69% = III),III (50-69% = III),III (50-69% = III),I (<19% over-expression = I),III (50-69% = III),II (20-49% = II),I (<19% over-expression = I),"NSCLC, PC"
70: peptide found in KIF4A (gene looked up) (GLTEKTVLV; listed as Homo sapiens) [compound 70],"CRC, AML, NHL",I (<19% over-expression = I),IV (>70% = IV),III (50-69% = III),III (50-69% = III),I (<19% over-expression = I),II (20-49% = II),II (20-49% = II),I (<19% over-expression = I),"NSCLC, PC"
250: peptide found in CDK1 (gene looked up) (LMQDSRLYL; listed as Homo sapiens) [compound 250],,I (<19% over-expression = I),IV (>70% = IV),IV (>70% = IV),IV (>70% = IV),II (20-49% = II),IV (>70% = IV),III (50-69% = III),II (20-49% = II),
268: peptide found in TOP2A (gene looked up) (SLDKDIVAL; listed as Homo sapiens) [compound 268],,I (<19% over-expression = I),IV (>70% = IV),IV (>70% = IV),IV (>70% = IV),II (20-49% = II),IV (>70% = IV),III (50-69% = III),II (20-49% = II),

# From patent US20160279215A1, “NOVEL PEPTIDES AND COMBINATION OF PEPTIDES FOR USE IN IMMUNOTHERAPY AGAINST VARIOUS TUMORS” (immatics biotechnologies GmbH, priority 2015, published 2016)
